Measurements taken from the supplement of paper PMC4604168 (melanoma cell lines).
The list shows a part of the results. Repeats are few or missing, and single values can be far off.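 The apoptosis fraction was the count of cleaved-PARP antibody-stained nuclei relative to all DNA-stained nuclei, imaged in 1,536-well plates. Screening doses were set so most cells survived, and baseline and induced cleaved-PARP levels vary greatly across cell lines.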

tested on: RPMI7951; assay: cleaved PARP positive nuclei fraction relative to DMSO control; melanoma cells; higher = more apoptosis; conditions: library dose: low library concentration; 72 h

SMILES	cleaved PARP positive nuclei fraction [%]
O=C(CCCCCCC(=O)Nc1ccccc1)NO [vorinostat] + O=C(O)C(=O)Nc1sc2c(c1C(=O)O)CCNC2 [TCS401] (first compound 0.08 µM, partner dose 1.66667 µM)	98.3
OCCn1cc(-c2cnc3nnn(Cc4ccc5ncccc5c4)c3n2)cn1 + c1cc(-c2cnn3cc(-c4ccc(OCCN5CCCCC5)cc4)cnc23)ccn1 [Dorsomorphin] (first compound 1 µM, partner dose 0.4 µM)	90.6
CC1(C)NC(=O)N(c2ccc([N+](=O)[O-])c(C(F)(F)F)c2)C1=O [nilutamide] + CCCCCCCCCCCC1=C(O)C(=O)C=C(O)C1=O [Embelin] (first compound 1 µM, partner dose 1.2 µM)	80.8
Cn1nnc2c(C(N)=O)ncn2c1=O [temozolomide] + COc1ccc2c(c1)CCC1C2CCC2(C)C(NCCCCCCN3C(=O)C=CC3=O)CCC12 [U73122] (first compound 2 µM, partner dose 0.4 µM)	99.8
Cn1nnc2c(C(N)=O)ncn2c1=O [temozolomide] + O=S(=O)(c1ccccc1)N(CC(F)(F)F)c1ccc(C(O)(C(F)(F)F)C(F)(F)F)cc1 [T0901317] (first compound 2 µM, partner dose 1.4 µM)	36.5
O=C(CCCCCCC(=O)Nc1ccccc1)NO [vorinostat] + O=c1cc(-c2cccc3c2Sc2ccccc2S3)oc(N2CCOCC2)c1 [KU55933] (first compound 0.08 µM, partner dose 1 µM)	87.7

For convenience, some entries already given.
SMILES	cleaved PARP positive nuclei fraction [%]
O=C(CCCCCCC(=O)Nc1ccccc1)NO [vorinostat] + O=C(O)C(=O)Nc1sc2c(c1C(=O)O)CCNC2 [TCS401] (first compound 0.08 µM, partner dose 1.66667 µM)	98.3
OCCn1cc(-c2cnc3nnn(Cc4ccc5ncccc5c4)c3n2)cn1 + c1cc(-c2cnn3cc(-c4ccc(OCCN5CCCCC5)cc4)cnc23)ccn1 [Dorsomorphin] (first compound 1 µM, partner dose 0.4 µM)	90.6
